Series [1] has as its target T1, CXCL9 (MIG) (Homo sapiens) (UniProt Q07325).
T1 sequence (looked up, limits assumed): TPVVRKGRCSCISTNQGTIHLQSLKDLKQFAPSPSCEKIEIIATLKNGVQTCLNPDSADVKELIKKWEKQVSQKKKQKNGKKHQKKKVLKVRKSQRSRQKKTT
Nature of the series: ELONA. To be noted: purified recombinant protein.

Sequences of proteins named here, by UniProt entry; tags and fusion partners are left off. Residues count along the entry.
UniProt Q92583, 24-94: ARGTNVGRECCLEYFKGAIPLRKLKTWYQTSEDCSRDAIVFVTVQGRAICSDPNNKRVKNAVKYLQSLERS

In another series the target is CCL17 (Homo sapiens) (UniProt Q92583). Nature of the series: ELONA. To be noted: indole-clicked EdU at all N (28,44,47,49,50) [28,44,47,49,50 (indole-clicked EdU)]; DNA at 2x KD; purified recombinant protein; protein details: BioLegend; label: 5' biotin or Cy5; single-stranded DNA; letters built from the parent sequence and the stated change.
The target in another series is T2, CCL22 (Homo sapiens) (UniProt O00626).
T2 sequence (looked up, limits assumed): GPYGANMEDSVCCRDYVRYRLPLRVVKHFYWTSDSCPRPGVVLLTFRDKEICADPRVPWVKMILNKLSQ
Nature of the series: ELONA. As to conditions: indole-clicked EdU at all N (28,44,47,49,50) [28,44,47,49,50 (indole-clicked EdU)]; DNA at 2x KD; purified recombinant protein; protein details: BioLegend; label: 5' biotin or Cy5; single-stranded DNA; letters built from the parent sequence and the stated change.

Another series deals with T3, CCL3 (Homo sapiens) (UniProt P10147).
T3 sequence (looked up, limits assumed): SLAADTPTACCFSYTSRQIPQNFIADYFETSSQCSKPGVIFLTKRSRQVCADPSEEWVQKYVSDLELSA
Nature of the series: ELONA. To be noted: indole-clicked EdU at all N (28,44,47,49,50) [28,44,47,49,50 (indole-clicked EdU)]; DNA at 2x KD; purified recombinant protein; protein details: Peprotech; label: 5' biotin or Cy5; single-stranded DNA; letters built from the parent sequence and the stated change.

The target in series [2] is T4, CRP (C-reactive protein) (Homo sapiens) (UniProt P02741).
T4 sequence (looked up, limits assumed): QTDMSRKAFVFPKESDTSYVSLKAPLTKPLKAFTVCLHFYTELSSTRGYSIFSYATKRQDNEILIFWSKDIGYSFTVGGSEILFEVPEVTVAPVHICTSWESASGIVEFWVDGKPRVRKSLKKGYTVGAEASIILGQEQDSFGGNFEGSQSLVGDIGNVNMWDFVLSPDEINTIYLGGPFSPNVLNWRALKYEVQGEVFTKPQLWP
Nature of the series: ELONA. To be noted: indole-clicked EdU at all N (28,44,47,49,50) [28,44,47,49,50 (indole-clicked EdU)]; DNA at 2x KD; purified native protein; protein details: BioRad; label: 5' biotin or Cy5; single-stranded DNA; letters built from the parent sequence and the stated change.

In the next series the target is CXCL1 (Homo sapiens) (UniProt P09341). Nature of the series: ELONA. To be noted: indole-clicked EdU at all N (28,44,47,49,50) [28,44,47,49,50 (indole-clicked EdU)]; DNA at 2x KD; purified recombinant protein; protein details: Cell guidance system; label: 5' biotin or Cy5; single-stranded DNA; letters built from the parent sequence and the stated change.
For a further series, the target named is CXCL10 (Homo sapiens) (UniProt P02778). Nature of the series: ELONA. To be noted: indole-clicked EdU at all N (28,44,47,49,50) [28,44,47,49,50 (indole-clicked EdU)]; DNA at 2x KD; purified recombinant protein; protein details: Cell guidance system; label: 5' biotin or Cy5; single-stranded DNA; letters built from the parent sequence and the stated change.
Series [3] has as its target HSA (human serum albumin) (Homo sapiens) (UniProt P02768). Nature of the series: ELONA. To be noted: indole-clicked EdU at all N (28,44,47,49,50) [28,44,47,49,50 (indole-clicked EdU)]; DNA at 2x KD; purified native protein; protein details: Sigma-Aldrich; label: 5' biotin or Cy5; single-stranded DNA; letters built from the parent sequence and the stated change.
For series [4], the target named is T5, sCD25 (soluble interleukin-2 receptor) (Homo sapiens) (UniProt P01589).
T5 sequence (looked up, limits assumed): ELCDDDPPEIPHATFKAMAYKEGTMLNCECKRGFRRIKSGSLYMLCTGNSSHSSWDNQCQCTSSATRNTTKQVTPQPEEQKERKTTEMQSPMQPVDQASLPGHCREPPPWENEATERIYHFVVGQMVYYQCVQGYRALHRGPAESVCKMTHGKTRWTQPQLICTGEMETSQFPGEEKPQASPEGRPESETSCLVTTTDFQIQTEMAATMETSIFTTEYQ
Nature of the series: ELONA. As to conditions: indole-clicked EdU at all N (28,44,47,49,50) [28,44,47,49,50 (indole-clicked EdU)]; DNA at 2x KD; purified recombinant protein; protein details: Antikorper online; label: 5' biotin or Cy5; single-stranded DNA; letters built from the parent sequence and the stated change.

Series [5] deals with T6, CXCL9, endogenous (macrophage supernatant) (Homo sapiens) (UniProt Q07325).
T6 sequence (looked up, limits assumed): T1 sequence (looked up, limits assumed)
Nature of the series: flow cytometry. To be noted: 150 nM DNA, reduced vs recombinant CXCL9, protein in an extract, protein details: captured by anti-CXCL9 antibody on magnetic beads, label: 5' biotin or Cy5, single-stranded DNA. (In general: A flow cytometer gives signals particle by particle.)

Series [6] has as its target T1, CXCL9 (MIG) (Homo sapiens). Nature of the series: flow cytometry. To be noted: purified recombinant protein, single-stranded DNA.

For some assays here: A negative result means that nothing was seen under these conditions. For some assays here: Tags and fusion partners may be left off the protein sequences shown. For some assays here: Results from cells or extracts need not show a direct contact. Construct, isoform or probe ends are uncertain for at least one entry.

As for “CACGACGCAAGGGACCACAGGAGAGACTCACGGGCGGGCGACCTACTGTTCAGCCCAGACCGACAGCACGACACCGCAGAGGCA [I29 Am]”, the binding result in series [1] (ethylamine-clicked EdU at all N [28,44,47,49,50 (ethylamine-clicked EdU)], 100 nM DNA, label: 5' biotin, single-stranded DNA, letters built from the parent sequence and the stated change, variant of I29 …) is given as “no binding”.
For the sequence “CACGACGCAAGGGACCACAGGAGAGACTCACGGGCGGGCGACCTACTGTTCAGCCCAGACCGACAGCACGACACCGCAGAGGCA [I29 E]”, in series [1] (EdU at all N, not clicked [28,44,47,49,50 (EdU, not clicked)], 100 nM DNA, label: 5' biotin, single-stranded DNA, letters built from the parent sequence and the stated change, variant of I29 …), the binding result was “no binding”.
Turning to “CACGACGCAAGGGACCACAGGAGAGACTCACGGGCGGGCGACCTACTGTTCAGCCCAGACCGACAGCACGACACCGCAGAGGCA [I29 Gua]”, the binding result in series [1] (guanidine-clicked EdU at all N [28,44,47,49,50 (guanidine-clicked EdU)], 100 nM DNA, label: 5' biotin, single-stranded DNA, letters built from the parent sequence and the stated change, variant of I29 …) was “no binding”.
On to “CACGACGCAAGGGACCACAGGAGAGACTCACGGGCGGGCGACCTACTGTTCAGCCCAGACCGACAGCACGACACCGCAGAGGCA [I29 Imi]”, for which the binding result in [1] (imidazole-clicked EdU at all N [28,44,47,49,50 (imidazole-clicked EdU)], 100 nM DNA, label: 5' biotin, single-stranded DNA, letters built from the parent sequence and the stated change, variant of I29 …) is listed as “no binding”.
On to “CACGACGCAAGGGACCACAGGAGAGACTCACGGGCGGGCGACCTACTGTTCAGCCCAGACCGACAGCACGACACCGCAGAGGCA [I29 In]”, for which the binding result (with CCL17 (Homo sapiens); with CCL22 (Homo sapiens); in the series with CCL3 (Homo sapiens); in series [2]; in the series with CXCL1 (Homo sapiens); in the series with CXCL10 (Homo sapiens)) was “no binding” each time. Moreover, the binding result is listed as “no binding” in [3]; “no binding” in series [4]; “binds” in [5] (indole-clicked EdU at all N (28,44,47,49,50) [28,44,47,49,50 (indole-clicked EdU)], letters built from the parent sequence and the stated change).
Regarding “CACGACGCAAGGGACCACAGGAGAGACTCACGGGCGGGCGACCTACTGTTCAGCCCAGACCGACAGCACGACACCGCAGAGGCA [I29 MePro]”, the binding result in series [1] (methylpropane-clicked EdU at all N [28,44,47,49,50 (methylpropane-clicked EdU)], 100 nM DNA, label: 5' biotin, single-stranded …, letters built from the parent sequence and the stated change, variant of I29 In) is given as “no binding”.
As to “CACGACGCAAGGGACCACAGGAGAGACTCACGGGCGGGCGACCTACTGTTCAGCCCAGACCGACAGCACGACACCGCAGAGGCA [I29 T28]”, in [1] (indole-clicked EdU at 44,47,49,50, 100 nM DNA, modification at 28 not important, label: 5' biotin, single-stranded DNA, variant of I29 In), the binding result is recorded as “binds”.
Regarding “CACGACGCAAGGGACCACAGGAGAGACTCACGGGCGGGCGACCTACTGTTCAGCCCAGACCGACAGCACGACACCGCAGAGGCA [I29 Thio]”, the binding result in series [1] (benzothiophene-clicked EdU at all N [28,44,47,49,50 (benzothiophene-clicked EdU)], 100 nM DNA, label: 5' biotin, single-stranded DNA, letters built from the parent sequence and the stated change, variant of I29 …) is listed as “binds”.
Consider “CACGACGCAAGGGACCACAGGGAGGGAGGGTGGGCAAAGGGCCCTAAGTCCGTAACAAAAACACAGCACGACACCGCAGAGGCA [G123 Bn]”, for which, in series [6] (benzyl-clicked EdU at all N [31,45,49,53 (benzyl-clicked EdU)], 500 nM DNA, label: 5' Cy5, letters built from the parent sequence and the stated change, variant of G123 DNA), the binding result is “binds”.
Take “CACGACGCAAGGGACCACAGGGAGGGAGGGTGGGCAAAGGGCCCTAAGTCCGTAACAAAAACACAGCACGACACCGCAGAGGCA [G123 DNA]”: the binding result in series [6] (binding buffer without K+, 100 nM DNA, label: 5' biotin or Cy5) is “no binding”; in series [5] it was “binds”.
For the sequence “CACGACGCAAGGGACCACAGGGAGGGAGGGTGGGCAAAGGGCCCTAAGTCCGTAACAAAAACACAGCACGACACCGCAGAGGCA [G123 E-dU]”, in series [1] (5-ethynyl-dU (EdU) at all N, not clicked [31,45,49,53 (5-ethynyl-dU, not clicked)], label: 5' biotin or Cy5, single-stranded DNA, letters built from the parent sequence and the stated change, variant of G123 DNA), the binding result is recorded as “binds”.
Take “CACGACGCAAGGGACCACAGGGAGGGAGGGTGGGCAAAGGGCCCTAAGTCCGTAACAAAAACACAGCACGACACCGCAGAGGCA [G123 Gua]”: the binding result in [6] (guanidine-clicked EdU at all N [31,45,49,53 (guanidine-clicked EdU)], 500 nM DNA, label: 5' Cy5, letters built from the parent sequence and the stated change, variant of G123 DNA) was “binds”.
Regarding “CACGACGCAAGGGACCACAGGGAGGGAGGGTGGGCAAAGGGCCCTAAGTCCGTAACAAAAACACAGCACGACACCGCAGAGGCA [G123 Phe]”, in series [6] (phenol-clicked EdU at all N [31,45,49,53 (phenol-clicked EdU)], 500 nM DNA, label: 5' Cy5, letters built from the parent sequence and the stated change, variant of G123 DNA), the binding result was “binds”.
“CACGACGCAAGGGACCACAGGGCACGTGCGAGGCGCTACATCACCGGTGCAAGCACCGTGCAACAGCACGACACCGCAGAGGCA [I29.sc]”: the binding result in [6] (N = EdU (indole-clicked), scrambled non-binding control, label: 5' Cy5, variant of I29 In) is “no binding”.

The values are drawn from patent publication US20230358760.
